# Laboratory results from patent publication US20150065444A1.
# Results are given in words; binding and its absence hold for the method and conditions named. Some results given as binding are weak or reduced against the parent protein; the word gives no strength. Tags and fused reporters may be left off the sequences shown.
# T1: Arm1 (acidic residue methyltransferase, C6orf211 protein), endogenous in SK-Br-3 cell extracts (Homo sapiens) (UniProt Q9H993)
# T1 sequence: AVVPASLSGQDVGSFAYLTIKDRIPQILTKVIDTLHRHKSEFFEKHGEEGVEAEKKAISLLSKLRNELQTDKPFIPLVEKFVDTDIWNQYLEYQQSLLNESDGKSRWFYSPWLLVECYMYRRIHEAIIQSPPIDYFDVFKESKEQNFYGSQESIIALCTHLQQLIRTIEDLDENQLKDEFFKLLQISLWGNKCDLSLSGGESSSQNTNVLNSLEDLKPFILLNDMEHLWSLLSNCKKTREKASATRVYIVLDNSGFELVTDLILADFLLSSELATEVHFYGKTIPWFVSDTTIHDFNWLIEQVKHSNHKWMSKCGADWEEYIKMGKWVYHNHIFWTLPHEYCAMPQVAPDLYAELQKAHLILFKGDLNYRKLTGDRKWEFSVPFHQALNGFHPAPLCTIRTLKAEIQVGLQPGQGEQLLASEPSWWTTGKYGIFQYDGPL
# B1: Flag-Rev1 (protein, human, UniProt Q9UBZ9 1-1251, looked up, not shown: small tags and cut ends)
# chain: MRRGGWRKRAENDGWETWGGYMAAKVQKLEEQFRSDAAMQKDGTSSTIFSGVAIYVNGYTDPSAEELRKLMMLHGGQYHVYYSRSKTTHIIATNLPNAKIKELKGEKVIRPEWIVESIKAGRLLSYIPYQLYTKQSSVQKGLSFNPVCRPEDPLPGPSNIAKQLNNRVNHIVKKIETENEVKVNGMNSWNEEDENNDFSFVDLEQTSPGRKQNGIPHPRGSTAIFNGHTPSSNGALKTQDCLVPMVNSVASRLSPAFSQEEDKAEKSSTDFRDCTLQQLQQSTRNTDALRNPHRTNSFSLSPLHSNTKINGAHHSTVQGPSSTKSTSSVSTFSKAAPSVPSKPSDCNFISNFYSHSRLHHISMWKCELTEFVNTLQRQSNGIFPGREKLKKMKTGRSALVVTDTGDMSVLNSPRHQSCIMHVDMDCFFVSVGIRNRPDLKGKPVAVTSNRGTGRAPLRPGANPQLEWQYYQNKILKGKAADIPDSSLWENPDSAQANGIDSVLSRAEIASCSYEARQLGIKNGMFFGHAKQLCPNLQAVPYDFHAYKEVAQTLYETLASYTHNIEAVSCDEALVDITEILAETKLTPDEFANAVRMEIKDQTKCAASVGIGSNILLARMATRKAKPDGQYHLKPEEVDDFIRGQLVTNLPGVGHSMESKLASLGIKTCGDLQYMTMAKLQKEFGPKTGQMLYRFCRGLDDRPVRTEKERKSVSAEINYGIRFTQPKEAEAFLLSLSEEIQRRLEATGMKGKRLTLKIMVRKPGAPVETAKFGGHGICDNIARTVTLDQATDNAKIIGKAMLNMFHTMKLNISDMRGVGIHVNQLVPTNLNPSTCPSRPSVQSSHFPSGSYSVRDVFQVQKAKKSTEEEHKEVFRAAVDLEISSASRTCTFLPPFPAHLPTSPDTNKAESSGKWNGLHTPVSVQSRLNLSIEVPSPSQLDQSVLEALPPDLREQVEQVCAVQQAESHGDKKKEPVNGCNTGILPQPVGTVLLQIPEPQESNSDAGINLIALPAFSQVDPEVFAALPAELQRELKAAYDQRQRQGENSTHQQSASASVPKNPLLHLKAAVKEKKRNKKKKTIGSPKRIQSPLNNKLLNSPAKTLPGACGSPQKLIDGFLKHEGPPAEKPLEELSASTSGVPGLSSLQSDPAGCVRPPAPNLAGAVEFNDVKTLLREWITTISDPMEEDILQVVKYCTDLIEEKDLEKLDLVIKYMKRLMQQSVESVWNMAFDFILDNVQVVLQQTYGSTLKVT
# Tests used:
# [1] = molecular target: T1, Arm1 (acidic residue methyltransferase, C6orf211 protein), endogenous in SK-Br-3 cell extracts (Homo sapiens); assay: SK-Br-3 cells transfected with Flag-Rev1 (FIG. 4d)
# [2] = molecular target: T1, Arm1 (acidic residue methyltransferase, C6orf211 protein), endogenous in SK-Br-3 cell extracts (Homo sapiens); assay: SK-Br-3 cells transfected with control or Flag-Rev1 plasmids, harvested 6 h after UV irradiation; detection method not described
binder,measurement,setting,value
B1,binding,[1],binds
same,binding,[2],binds
